The target in this assay is UTX (ubiquitously transcribed tetratricopeptide repeat on chromosome X), overexpressed (human) (UniProt O15550). Description: affinity purification with mass spectrometry; immunoprecipitation from 293 T cells transfected with UTX, followed by mass spectrometric analysis.

Sequences of proteins named here, by UniProt entry; tags and fusion partners are left off.
UniProt O15550: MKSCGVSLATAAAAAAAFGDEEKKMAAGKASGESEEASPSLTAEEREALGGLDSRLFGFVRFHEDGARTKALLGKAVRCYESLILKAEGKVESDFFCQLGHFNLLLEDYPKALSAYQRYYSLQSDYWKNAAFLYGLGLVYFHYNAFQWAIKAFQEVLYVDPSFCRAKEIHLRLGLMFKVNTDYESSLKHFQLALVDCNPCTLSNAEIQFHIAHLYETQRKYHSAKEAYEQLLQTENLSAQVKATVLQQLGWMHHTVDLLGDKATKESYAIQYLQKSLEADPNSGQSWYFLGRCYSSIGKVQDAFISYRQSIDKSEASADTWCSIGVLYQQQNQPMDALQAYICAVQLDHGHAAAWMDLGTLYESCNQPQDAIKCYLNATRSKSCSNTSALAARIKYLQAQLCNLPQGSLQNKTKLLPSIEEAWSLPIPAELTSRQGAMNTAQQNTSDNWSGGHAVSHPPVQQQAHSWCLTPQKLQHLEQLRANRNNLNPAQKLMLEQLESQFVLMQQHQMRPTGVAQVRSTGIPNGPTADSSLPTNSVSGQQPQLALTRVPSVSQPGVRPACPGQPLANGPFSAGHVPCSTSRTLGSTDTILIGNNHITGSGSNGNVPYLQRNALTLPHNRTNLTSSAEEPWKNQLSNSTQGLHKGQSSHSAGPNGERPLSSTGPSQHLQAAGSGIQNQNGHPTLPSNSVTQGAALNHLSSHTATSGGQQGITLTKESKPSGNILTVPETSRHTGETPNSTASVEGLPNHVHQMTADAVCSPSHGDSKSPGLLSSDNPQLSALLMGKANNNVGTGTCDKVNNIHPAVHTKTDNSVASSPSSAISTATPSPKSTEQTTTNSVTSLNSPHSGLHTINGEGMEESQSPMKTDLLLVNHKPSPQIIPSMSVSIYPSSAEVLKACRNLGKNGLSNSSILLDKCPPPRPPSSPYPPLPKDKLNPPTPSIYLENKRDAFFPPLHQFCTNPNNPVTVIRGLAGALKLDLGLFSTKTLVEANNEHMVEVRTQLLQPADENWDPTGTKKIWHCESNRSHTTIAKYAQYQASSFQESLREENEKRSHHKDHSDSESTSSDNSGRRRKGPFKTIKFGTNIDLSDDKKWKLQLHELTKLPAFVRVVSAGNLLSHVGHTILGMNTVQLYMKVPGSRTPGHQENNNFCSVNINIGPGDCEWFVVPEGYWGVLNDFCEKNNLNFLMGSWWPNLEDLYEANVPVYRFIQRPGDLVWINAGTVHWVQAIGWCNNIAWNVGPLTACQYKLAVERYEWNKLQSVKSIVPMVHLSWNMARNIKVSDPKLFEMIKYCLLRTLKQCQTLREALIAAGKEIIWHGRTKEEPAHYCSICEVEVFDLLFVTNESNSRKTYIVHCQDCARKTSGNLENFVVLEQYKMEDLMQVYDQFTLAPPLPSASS
UniProt Q9Y508: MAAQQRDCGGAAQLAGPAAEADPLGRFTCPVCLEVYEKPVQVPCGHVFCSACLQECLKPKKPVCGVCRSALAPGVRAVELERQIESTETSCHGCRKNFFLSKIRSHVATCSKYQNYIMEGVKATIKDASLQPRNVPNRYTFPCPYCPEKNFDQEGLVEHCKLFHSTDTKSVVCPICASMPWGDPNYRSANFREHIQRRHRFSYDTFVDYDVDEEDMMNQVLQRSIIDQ

No constants are given. Whether binding was seen depends on the method and setting. Binding seen in cells or lysates may run through a third protein. These calls come from enrichment with a bait or labelling near it, and not all partners need be listed.

In the case of “RNF114, found by mass spectrometry in the UTX immunoprecipitate of 293 T cells (from UniProt Q9Y508 1-228)”, the binding result was “binds”.
